Reference: patent US20250224399A1, “METHOD FOR DETECTING HOMOCYSTEINE IN PLASMA AND METHOD FOR DIAGNOSING GLIOBLASTOMA BY USING NOVEL FLUORESCENT PROBE” (UNIVERSITY-INDUSTRY COOPERATION GROUP OF KYUNG HEE …, priority 2022, published 2025)

Assay: Absorbance and fluorescence emission after reaction with homocysteine in aqueous solution (pH 7.4, PBS buffer)
Details: Compound 1 10 μM + DL-homocysteine 10 μM
Excerpt: In this connection, the cell that puts the compound into each device was a standard quartz cell with a thickness of 1 cm (internal volume=[…]).

## O=[N+]([O-])c1ccc(Oc2ccncc2)c2nonc12 [Compound 1, 4-nitro-7-(pyridine-4-yloxy)benzo[c] [1,2,5] oxadiazole]
Excitation 460 nm
  wavelength at which the fluorescence emission spectrum increased (fluorescence turn-on): 550 nm
Stirred 10 minutes
  wavelength at which the absorbance spectrum increased: 488 nm
